One substance from publication PMC6962096 can be followed below.

Protein sequences, listed by entry. Tags and fused reporters are not part of them.
UniProt O00303: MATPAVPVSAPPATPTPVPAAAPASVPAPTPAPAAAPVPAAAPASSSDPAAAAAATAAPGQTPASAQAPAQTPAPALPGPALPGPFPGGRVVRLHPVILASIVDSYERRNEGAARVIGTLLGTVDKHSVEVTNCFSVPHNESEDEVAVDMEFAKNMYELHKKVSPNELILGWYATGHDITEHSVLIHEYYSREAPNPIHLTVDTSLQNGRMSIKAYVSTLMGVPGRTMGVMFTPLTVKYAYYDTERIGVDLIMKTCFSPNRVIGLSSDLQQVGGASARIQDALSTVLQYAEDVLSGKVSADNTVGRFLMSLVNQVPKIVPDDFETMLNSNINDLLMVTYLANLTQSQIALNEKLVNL
UniProt P40763: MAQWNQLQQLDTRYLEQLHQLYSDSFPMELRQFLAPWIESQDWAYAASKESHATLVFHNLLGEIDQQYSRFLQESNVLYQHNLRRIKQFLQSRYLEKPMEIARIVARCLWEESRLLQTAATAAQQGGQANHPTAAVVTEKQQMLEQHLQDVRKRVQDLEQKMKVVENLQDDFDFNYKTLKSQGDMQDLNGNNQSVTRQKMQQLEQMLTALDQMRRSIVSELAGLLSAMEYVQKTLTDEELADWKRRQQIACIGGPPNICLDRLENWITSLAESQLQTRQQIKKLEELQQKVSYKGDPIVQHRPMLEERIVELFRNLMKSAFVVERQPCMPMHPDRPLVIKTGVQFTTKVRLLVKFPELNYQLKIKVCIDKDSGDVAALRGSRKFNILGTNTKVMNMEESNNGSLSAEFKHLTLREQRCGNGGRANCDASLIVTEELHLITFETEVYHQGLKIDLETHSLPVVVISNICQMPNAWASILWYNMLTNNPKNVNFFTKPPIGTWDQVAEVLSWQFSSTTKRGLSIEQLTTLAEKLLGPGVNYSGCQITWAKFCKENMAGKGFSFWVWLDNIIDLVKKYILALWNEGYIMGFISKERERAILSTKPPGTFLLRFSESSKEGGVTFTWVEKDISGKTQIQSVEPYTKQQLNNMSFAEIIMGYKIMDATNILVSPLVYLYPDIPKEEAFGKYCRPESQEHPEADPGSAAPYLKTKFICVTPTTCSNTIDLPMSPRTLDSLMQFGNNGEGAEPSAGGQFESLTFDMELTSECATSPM

The target in the assay is Flag-M2-tagged EIF3F (eukaryotic translation initiation factor 3F) (human) (UniProt O00303). Description: co-IP; Dynabeads protein A coated with 1 µg EIF3F or STAT3 antibody; total proteins of A549-EIF3F cells extracted with RIPA buffer; controls: purified IgG, beads without antibody.

No constants are given. Whether binding was seen depends on the method and setting. In cells and extracts the contact can be indirect. Some binding calls cover weakened binding; strength is not graded here.

On to “Signal transducer and activator of transcription 3 (from UniProt P40763 1-770)”, for which the binding result is listed as “binds”.
